# Among all 59,000 compounds or so, about 35 (0.06%) were called active. Inconclusive means that the source gave no clear call. Such entries were picked first, then a sample of the others. Rule as the data show it: active = max dye-equivalent concentration above about 10 nM; inconclusive = between about 1.1 nM and that limit; inactive = weaker than that.
# Test: qHTS Assay for Spectroscopic Profiling in Texas Red Spectral Region
# Details: Compound fluorescence, Texas Red channel, 547/618 nm; hits give high values
# In short: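 Texas Red-region profiling: compounds in 100 mM Tris pH 8.0 were read at 547/618 nm after 15 min at room temperature. Intensities were normalized against a six-point Texas Red standard series to give dye-equivalent concentration.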
row,SMILES,max dye-equivalent concentration
1,O=S(=O)(c1ccc(N2CCOCC2)cc1)N1CCOCC1,inconclusive: 1.2 nM
2,CCOC(=O)c1ccc2c(c1)N(Cc1ccccc1C)C(=O)c1ccccc1S2=O (configuration not stated),inconclusive: 1.3 nM
3,Cc1cnc(NC(=O)c2ccco2)s1,inconclusive: 1.2 nM
4,CCOc1ccccc1NC(=O)NC1CC2CCCC(C1)N2Cc1nnnn1CCc1ccccc1 (configuration not stated),inconclusive: 1.1 nM
5,Clc1ccc(Br)cc1-c1nc(-c2ccncc2)no1,inconclusive: 1.1 nM
6,Cn1c(Cl)cnc1C(O)c1ccccc1 (configuration not stated),inconclusive: 1.6 nM
7,CC1(C)CC(=O)C2=C(C1)OC(c1ccncc1)C(C#N)=C2N (configuration not stated),inconclusive: 1.2 nM
8,COc1ccc(CNS(=O)(=O)c2ccc(OC)cc2)cc1,inconclusive: 1.5 nM
9,CCCCCOC(=O)C1[C@H]2C(=O)N(CCCOC)C[C@]23C=C[C@H]1O3 (some centres not stated),inconclusive: 1.5 nM
10,CCNc1ncc2nc(CCc3ccccc3)c(=O)n(-c3ccc(OC)cc3)c2n1,inactive
11,CCN(CC)S(=O)(=O)c1cccc(-c2nc3n(n2)Cc2ccccc2-3)c1,inconclusive: 2.4 nM
12,O=C(Nc1ccc(N2CCN(C(=O)c3ccccc3)CC2)cc1)c1ccc(Br)o1,inconclusive: 1.2 nM
13,Cc1cc(C)n(CCc2nc3c4ccccc4n(CC(=O)Nc4ccc(Cl)cc4F)c(=O)n3n2)n1,inconclusive: 1.1 nM
14,Cc1ccccc1CNc1ncnc2c1ncn2[C@@H]1O[C@@H](CO)[C@H](O)[C@@H]1O,inconclusive: 1.4 nM
15,COC(=O)c1ccc(OC(=O)c2ccco2)cc1,inconclusive: 1.7 nM
16,Cc1cc2nnc(SC(C)C#N)n2c2ccccc12 (configuration not stated),inconclusive: 1.3 nM
17,O=C(c1cnccn1)N1CCC[C@@]2(CCN(c3ccncc3)C2)C1,inactive
18,COc1ccc(-c2nc3nc(C)c(Cc4ccccc4)c(=O)n3[nH]2)cc1,inconclusive: 1.3 nM
19,CSc1nc2ccc(NC(=O)C3CC(=O)N(Cc4ccco4)C3)cc2s1 (configuration not stated),inconclusive: 1.9 nM
20,O=c1cc(-c2ccccc2)oc2cc(O[C@H]3O[C@H](CO)[C@@H](O)[C@H](O)[C@@H]3O)c(O)c(O)c12,inactive
21,Cc1ccnc(NS(=O)(=O)c2ccc(N=[N+]=[N-])cc2)n1,inactive
22,O=C(Oc1ccccc1)c1cc2ccccc2o1,inconclusive: 1.6 nM

row,SMILES,max dye-equivalent concentration
1,CCOC(=O)C(NC(=O)Nc1ncccn1)(Oc1ccccc1)C(F)(F)F (configuration not stated),inactive
2,CCn1c(SCC(=O)Nc2cccc(OC)c2)nnc1-c1ccc(Cl)cc1,inconclusive: 1.6 nM
3,CC(=O)Nc1ccc(S(=O)(=O)N(C2=NCC(C)S2)c2ccccc2)cc1 (configuration not stated),inconclusive: 1.8 nM
4,O=C(NCc1ccc(F)cc1)C1CCN(C(=O)NCc2ccccc2)CC1,inactive
5,COc1ccc(N(C(C)=O)C2C=CS(=O)(=O)C2)c(OC)c1 (configuration not stated),inconclusive: 1.2 nM
6,COc1cccc(-c2cc(C(=O)N3CCN(Cc4ccccc4)CC3)no2)c1,inconclusive: 1.2 nM
7,COc1cc(C2C(C(C)=O)=C(O)C(=O)N2c2ccc(Br)cn2)ccc1O (configuration not stated),inconclusive: 1.5 nM
8,COc1ccc2[nH]c(=O)c(CN(C(=O)COc3ccccc3)C(C)C)cc2c1,inconclusive: 1.1 nM
9,O=C1COc2ccc(C(=O)COC(=O)C3CCN(S(=O)(=O)c4cccs4)CC3)cc2N1,inconclusive: 2.5 nM
10,COCCNC(=O)CN(C(=O)CCC(=O)Nc1ccccn1)c1ccc(F)c(Cl)c1,inconclusive: 1.7 nM
11,Cc1cc(-c2nnc(SCc3ccccn3)o2)no1,inconclusive: 1.8 nM
12,Cc1ccc(N(CC(=O)NCc2ccncc2)S(C)(=O)=O)cc1Cl,inconclusive: 1.6 nM
13,O=C(O)[C@@H](O)[C@@H](O)[C@H](O)[C@H](O)CO,inconclusive: 1.2 nM
14,Cn1ccnc1SCC(=O)c1cc2ccccc2o1,inactive
15,CC(C)(CO)[C@H](O)C(=O)NCCC(=O)O,inactive
16,CCOc1ccc(CNC23CN4CN(CN(C4)C2)C3)cc1,inconclusive: 1.6 nM
17,O=C1N(Cc2ccc3c(c2)OCO3)c2ccccc2C1(O)c1c[nH]c2ccccc12 (configuration not stated),inconclusive: 1.4 nM
18,COc1cccc(NC(=O)CNC(=O)c2cccs2)c1,inconclusive: 1.6 nM
19,Cc1ccc(-n2c(SCC(N)=O)nnc2-c2cccnc2)c(C)c1,inconclusive: 1.1 nM
20,O=C(CCN1C(=O)c2ccccc2C1=O)Nc1ccccn1,inconclusive: 1.2 nM
21,CC(=O)Nc1cccc(-c2nnc(-c3ccccc3)o2)c1,inconclusive: 1.1 nM
22,CC(=O)N(C)c1ccc(NC(=O)c2cnn(C)c2)cc1,inconclusive: 1.7 nM

row,SMILES,max dye-equivalent concentration
1,CCOC(=O)c1sc(NC(=O)CSc2nnc(Cc3ccccc3)o2)c(C#N)c1C,inconclusive: 1.1 nM
2,O=C(CCS(=O)(=O)c1cccc2nsnc12)N1CC(=O)N(CCc2ccccc2)C(=O)C1,inactive
3,Cc1ccc(-c2c3c(=O)n(C)c(=O)n(C)c3c3nnc4ccccc4n23)cc1,inactive
4,Cc1noc(C)c1-c1nc(NCc2cccs2)c2ccccc2n1,inactive
5,CC(=O)Cn1c(N2CCC(Cc3ccccc3)CC2)nc2c1c(=O)[nH]c(=O)n2C,inconclusive: 1.2 nM
6,Cc1ccccc1-n1c(SCC(=O)NCc2cccs2)nnc1-c1ccncc1,inconclusive: 1.5 nM
7,CCn1c(SCC(=O)Nc2nc(-c3ccccc3)cs2)nnc1-c1ccccc1,inconclusive: 1.4 nM
8,O=C(CCC(=O)Nc1ccc(Oc2ccccc2)cc1)NCCO,inconclusive: 1.7 nM
9,C#CCSc1nnc(-c2ccccc2)c(=O)[nH]1,inconclusive: 1.2 nM
10,CC(C)C(C(=O)NC1CCCCC1)N(CC1CCCO1)C(=O)CNS(=O)(=O)c1ccc(F)cc1 (configuration not stated),inactive
11,CCOCCc1nnc(NC(=O)CSc2ccccc2)s1,inactive
12,COc1ccc(NC(=O)CS(=O)CC(=O)NCc2cccc(C(F)(F)F)c2)cc1 (configuration not stated),inconclusive: 1.1 nM
13,CCN(CC)[C@@H](C)C(=O)N1c2ccccc2Sc2ccccc21,inconclusive: 1.9 nM
14,O=C(NCc1ccc2c(c1)OCO2)c1ccc(-c2ccc(Cl)cc2)o1,inconclusive: 1.2 nM
15,CCOC(=O)CC1=CC(=O)Nc2ccccc2N1,inconclusive: 1.3 nM
16,COc1ccc(NC(=O)C2Cc3ccccc3CN2C(=O)c2ccccc2)cn1 (configuration not stated),inactive
17,COC(=O)N1CCC2(CCN(C(=O)Nc3cccc(F)c3)CC2)CC1,inactive
18,COC(=O)[C@H](Cc1ccccc1)NC(=O)Nc1ccc(S(N)(=O)=O)cc1,inconclusive: 1.6 nM
19,CCOC(=O)C1C(=O)CC(C)(O)C(C(=O)OCC)C1c1cc(Br)ccc1OC (configuration not stated),inconclusive: 1.3 nM
20,CCC[C@H]1C[C@H](C(=O)N[C@@H]([C@H]2O[C@@H](SC)[C@@H](O)[C@@H](O)[C@@H]2O)[C@H](C)Cl)N(C)C1,inactive
21,O=C(NCCOC(=O)c1ccc(Cl)c(S(=O)(=O)N2CCCCC2)c1)c1ccncc1,inconclusive: 1.7 nM
22,COc1cc(NC(=O)c2ccc(-c3ccc(Br)cc3)o2)ccc1NC(=O)C(C)C,inconclusive: 1.2 nM

row,SMILES,max dye-equivalent concentration
1,CC(=O)c1sc2nc(-c3cccs3)cc(C(F)(F)F)c2c1N,inactive
2,CC(=O)c1cc(-c2ccccc2)[nH]c1N1CCOCC1,inconclusive: 1.4 nM
3,COc1ccc(NC(=O)Nc2ccc(N(C)C)cc2)cc1,inconclusive: 2.4 nM
4,CC1Cc2ccccc2N1Cc1nc2scc(-c3cccs3)c2c(=O)[nH]1 (configuration not stated),inconclusive: 1.5 nM
5,COc1ccc(N2CCN(Cc3cc(=O)oc4cc(C)c(Cl)c(C)c34)CC2)cc1,inconclusive: 2.1 nM
6,CCOc1ccccc1Nc1nc(N)nc(CN(C)C2CCCCC2)n1,inconclusive: 1.9 nM
7,CCOC(=O)C1=C(C)NC(C)=C(C(=O)OCC)C1C(=O)OCC(=O)N1CCc2ccccc21,inconclusive: 1.7 nM
8,Cc1cc(C)nc(NC(=O)CSc2nn(C)c(=S)s2)n1,inconclusive: 2.1 nM
9,CC(=O)Nc1ccc(S(=O)(=O)N2CCC(c3nc4ccc(C)cc4[nH]3)CC2)cc1,inconclusive: 2.2 nM
10,O=C(Oc1ccc(Cl)c2cccnc12)N1CCCCC1,inconclusive: 2.2 nM
11,O=C(Nc1ccccc1)C1CCN(c2nccs2)CC1,inconclusive: 1.2 nM
12,CCCNS(=O)(=O)c1ccc2c(c1)CCCN2C(C)=O,inconclusive: 1.2 nM
13,O=c1[nH]ccc2c(O)cccc12,inconclusive: 1.3 nM
14,Cc1cc(=O)cc(C)n1-c1ccc2c(c1)nc(C)n2-c1ccccc1,inconclusive: 1.5 nM
15,COc1ccc(Cn2c(C)nc3c(c2=O)c2nc4ccccc4nc2n3Cc2ccco2)cc1,inconclusive: 1.1 nM
16,Cc1cc(C)n(-c2nc(C)nc3c2cnn3-c2ccccc2)n1,inconclusive: 1.5 nM
17,CCC1S/C(=C(\C#N)C(=O)NCc2ccco2)N(c2ccc(Br)cc2)C1=O (configuration not stated),inconclusive: 1.5 nM
18,O=C(NCc1ccccc1)NC1(C(=O)N2CCCC2)CCCCC1,inconclusive: 1.2 nM
19,CCC(=O)Nc1nc(C)cc(SCC(=O)OC)n1,inconclusive: 1.3 nM
20,CCC(=O)c1cccc2c1N=CC1=C(CC(C)(C)CC1=O)N2,inconclusive: 3.5 nM
21,CCOC(=O)Cc1nnc(NC(=O)CC)s1,inconclusive: 1.1 nM

# By substructure: those above with bromine (six)
row,SMILES,max dye-equivalent concentration
5,Clc1ccc(Br)cc1-c1nc(-c2ccncc2)no1,inconclusive: 1.1 nM
12,O=C(Nc1ccc(N2CCN(C(=O)c3ccccc3)CC2)cc1)c1ccc(Br)o1,inconclusive: 1.2 nM
7,COc1cc(C2C(C(C)=O)=C(O)C(=O)N2c2ccc(Br)cn2)ccc1O (configuration not stated),inconclusive: 1.5 nM
19,CCOC(=O)C1C(=O)CC(C)(O)C(C(=O)OCC)C1c1cc(Br)ccc1OC (configuration not stated),inconclusive: 1.3 nM
22,COc1cc(NC(=O)c2ccc(-c3ccc(Br)cc3)o2)ccc1NC(=O)C(C)C,inconclusive: 1.2 nM
17,CCC1S/C(=C(\C#N)C(=O)NCc2ccco2)N(c2ccc(Br)cc2)C1=O (configuration not stated),inconclusive: 1.5 nM
